Data from PubChem BioAssay AID540256 (National Center for Advancing Translational Sciences (NCATS), 2011).
The campaign covered roughly 300,000 compounds. About 3,700 (1.2%) were called active. Inconclusive results, whose numbers are uncertain, are shown with a selection of clear calls. The call rests on the fitted dose curve; tested in HEK293 cells. Potencies beside an inconclusive call are fits to weak or partial responses and may not hold up.

Assay: qHTS for Inhibitors of binding or entry into cells for Lassa Virus; further: nearly all actives have a fitted effect of over 50% in size
Settings: Lassa virus pseudotype entry inhibition, cell reporter; series mostly up to 37.9 µM
Potency means the concentration at half of the fitted maximal effect.

Compound | Potency
CC(=O)c1sc(NC(=O)CN2C(=O)NC3(CCCC3)C2=O)nc1-c1ccccc1 | inconclusive: 6.31 µM [inhibitor, single point]
COc1ccc(C(=O)C[n+]2ccc(N)c(C)c2C)cc1 | inconclusive: 10 µM [inhibitor, partial curve]
O=C(NCc1ccccc1)C(=O)NCC1COc2ccccc2O1 (stereo not given) | inconclusive: 3.66 µM [inhibitor, full curve]
CCNC(=S)N/N=C(\C)c1ccc2ccccc2c1OC(F)F | inconclusive: 22.4 µM [inhibitor, partial curve, poor fit]
CC(=O)c1sc(Nc2nc3ccc(F)cc3s2)nc1C | inconclusive: 29.1 µM [inhibitor, single point]
Cc1ccc2nc(-c3ccc(NC(=O)COC(=O)c4ccc(=O)[nH]c4)cc3)sc2c1 | inconclusive: 8.91 µM [inhibitor, partial curve, poor fit]
COc1ccc(-n2c(SC)nc3sc4c(c3c2=O)CCN(C(C)=O)C4)cc1 | inconclusive: 6.31 µM [inhibitor, single point]
O=S(=O)(Cc1nnnn1-c1ccccc1)c1ccc(Cl)cc1 | inconclusive: 5.62 µM [activator, single point]
C=CCn1c(COc2ccccc2F)nnc1SCC(=O)Nc1cc2oc3ccccc3c2cc1OC | inconclusive: 35.5 µM [inhibitor, single point]
CSc1ccccc1NC(=O)Nc1cccc(F)c1 | inconclusive: 11.2 µM [inhibitor, partial curve, poor fit]
COc1cc(NC(=O)COc2cccc(OC)c2)cc(OC)c1 | inactive
COc1cc(Cl)c(C)cc1NC(=O)C1CCCN(c2ncnc3onc(-c4ccc(F)cc4)c23)C1 (stereo not given) | inactive
CC1CN(C(=O)COc2ccc3ccccc3c2Br)CC(C)O1 (stereo not given) | inconclusive: 35.5 µM [inhibitor, single point]
O=C(c1ccc2c(c1)N(Cc1cccc(Cl)c1)C(=O)c1ccccc1S2(=O)=O)N1CCc2ccccc21 | inconclusive: 3.55 µM [inhibitor, single point]
COCC(=O)NC1CCN(S(=O)(=O)c2cccc(C(C)=O)c2)CC1 | inactive
CCc1ccccc1N(CC)C(=O)C(=O)Nc1ccc2nc3n(c(=O)c2c1)CCCCC3 | inconclusive: 3.55 µM [inhibitor, single point]
Cc1ccc(S(=O)(=O)N(C)c2ccc(OC(C)C(=O)N(C)c3ccccc3)cc2)cc1 (stereo not given) | inconclusive: 11.2 µM [inhibitor, partial curve, poor fit]
CCOc1ccc(C(=O)NCC(=O)OCc2cc(C(C)=O)ccc2OC)cc1 | inactive
CN(C(=O)c1ccccc1)c1nc2ccccc2s1 | inconclusive: 35.5 µM [inhibitor, single point]
O=C(Cc1cccs1)N/N=C/C=C\c1ccccc1[N+](=O)[O-] | inconclusive: 20 µM [inhibitor, partial curve, poor fit]
O=C1c2ccccc2-c2onc3ccc(Oc4ccccc4)c1c23 | active: 10 µM
NC(=O)C1CCN(c2ccc(S(=O)(=O)N3CCC(Cc4ccccc4)CC3)cn2)CC1 | inconclusive: 5.62 µM [inhibitor, partial curve]

Compound | Potency
Cc1ccsc1C(=O)Nc1cc(Cl)ccc1-n1cncn1 | inactive
CC(C)(CC(=O)NCc1ccc(Cl)cc1Cl)CC1=NS(=O)(=O)c2ccccc2N1 | inconclusive: 35.5 µM [inhibitor, single point]
CN1CCN(C(c2ccc(Br)cc2)c2cc(Cl)c3cccnc3c2O)CC1 (stereo not given) | inconclusive: 35.5 µM [inhibitor, single point]
O=C(O)CC1c2ccccc2CCN1S(=O)(=O)c1cccs1 (stereo not given) | inactive
COCCSc1ccccc1C(=O)Nc1ccc2c(c1)OCCO2 | inactive
O=C(CNc1cccc(Cl)c1)NNC(=S)NCc1ccccc1 | inactive
Cn1c(COc2ccccc2C(C)(C)C)nc2ccccc21 | inconclusive: 5.62 µM [activator, single point]
COc1ccc(CCn2ccc(O)c(Cc3ccc(Cl)cc3)c2=O)cc1OC | inconclusive: 4.47 µM [inhibitor, full curve, poor fit]
O=C(NCCS(=O)(=O)N1CCN(c2cccc(Cl)c2)CC1)c1ccc2c(c1)OCO2 | inactive
Cc1cc(C)nc(/N=C2\NC(=O)CC(C(=O)O)N2c2ccc(Oc3ccccc3)cc2)n1 (stereo not given) | inconclusive: 2.06 µM [inhibitor, partial curve, poor fit]
COc1ccc(S(=O)(=O)N2CCC3(CC2)OCCN3S(=O)(=O)c2c(C)cc(C)cc2C)cc1 | inconclusive: 35.5 µM [inhibitor, single point]
CCOc1cccc(-c2nc3ccccc3c(=O)o2)c1 | inconclusive: 14.1 µM [inhibitor, partial curve, poor fit]
O=C1CN(C(=O)c2cccc(Br)c2)C(c2ccccc2)c2cc(Cl)ccc2N1 (stereo not given) | inconclusive: 35.5 µM [inhibitor, single point]
CCN=C(NCC)SC1CC(=O)N(CCc2ccccc2)C1=O (stereo not given) | inconclusive: 6.31 µM [inhibitor, single point]
N#Cc1c(-n2ncnc2-c2cccc(Cl)c2)sc2c1CCCCC2 | inconclusive: 5.01 µM [activator, single point]
Cc1cc(-c2n[nH]c(=S)n2/N=C/c2ccc(Cl)c([N+](=O)[O-])c2)n[nH]1 | inconclusive: 25.1 µM [inhibitor, partial curve, poor fit]
COc1ccc(OC)c(CCNC(=O)c2nn(C)c3c2CS(=O)(=O)c2ccccc2-3)c1 | inconclusive: 12.6 µM [inhibitor, single point]
Cc1ccc(NC(=O)CCC(=O)NNC(=O)Cc2ccccc2)cc1C | inactive
CN(c1ccc(C(=O)NCc2ccc3c(c2)OCO3)cc1)S(=O)(=O)c1ccccc1 | inconclusive: 35.5 µM [inhibitor, single point]
CS(=O)(=O)N1CCN(c2ccc([N+](=O)[O-])cc2C(F)(F)F)CC1 | inactive
COc1ccc(N(Cc2cc(=O)[nH]c3ccccc23)C(=O)CCl)cc1 | inconclusive: 35.5 µM [inhibitor, partial curve, poor fit]
Cc1c(C(=O)N2CCC(C)CC2)oc2ccc(S(=O)(=O)N3CCC4(CC3)OCCO4)cc12 | inconclusive: 1.83 µM [inhibitor, full curve]

Compound | Potency
Cn1c(O)c(C(c2ccccn2)c2c(O)n(C)c(=S)n(C)c2=O)c(=O)n(C)c1=S | inactive
O=C(O)CC(c1cccc2ccccc12)n1cccc1 (stereo not given) | inconclusive: 6.31 µM [activator, single point]
N#CCCN(C(=O)COC(=O)c1nc(Cl)ccc1Cl)c1ccccc1 | inconclusive: 1.26 µM [activator, single point]
CCOC(=O)C1=C(CN(CC)Cc2ccccc2)NC(=O)NC1c1ccc(OC)cc1 (stereo not given) | inconclusive: 5.62 µM [activator, single point]
N=C1/C(=C/c2cccn2Cc2ccc(Cl)cc2)C(=O)N=C2SC=CN12 | inconclusive: 14.1 µM [inhibitor, single point]
Cc1ccc(-c2nc3ccccc3s2)cc1NC(=S)NC(=O)/C=C/c1ccco1 | inconclusive: 35.5 µM [inhibitor, single point]
CCCC(=O)Nc1cccc(-c2nc3ccccc3o2)c1 | inactive
O=C(NC(=S)Nc1ccc(Cc2ccncc2)cc1)c1ccccc1 | inconclusive: 29.1 µM [inhibitor, single point]
COc1ccc2c(c1)c1c(c(=O)n(Cc3ccccc3)c(=O)n1CC(=O)Nc1ccccc1F)n2C | inactive
CC12CCC(C(NC(=S)NN)C1=O)C2(C)C (stereo not given) | inactive
CCOc1cc2c(cc1OCC)-n1cccc1C(c1ccccc1F)NC2 (stereo not given) | inconclusive: 35.5 µM [inhibitor, single point]
CCN(CC)S(=O)(=O)c1cccc(-c2nnc(SCC(=O)c3ccc(Cl)s3)n2C)c1 | inconclusive: 2.91 µM [inhibitor, partial curve]
O=C(O)/C=C/C(O)c1ccc(Cl)cc1 (stereo not given) | inconclusive: 0.103 µM [inhibitor, partial curve, poor fit]
CCCCN(C)C(=O)C1CCCN(S(=O)(=O)c2ccc3c(c2)CC(C)N3C(=O)C2CC2)C1 (stereo not given) | inconclusive: 8.91 µM [inhibitor, partial curve, poor fit]
Cc1ccc(N(C)C(=O)N2CCN(S(=O)(=O)c3ccc(C)c(C)c3)CC2)cc1 | inconclusive: 0.326 µM [inhibitor, full curve, poor fit]
O=C(c1cc(-c2cccs2)nc2ccccc12)N1CCN(c2ccccc2O)CC1 | inconclusive: 17.8 µM [inhibitor, partial curve, poor fit]
CCN1/C(=C2\SC(=S)N(Cc3ccccc3)C2=O)Sc2ccccc21 | inconclusive: 2.24 µM [inhibitor, partial curve, poor fit]
COc1cccc(-c2nc3c(c(SCC(=O)Nc4cccc(C)c4C)n2)Cc2c(CO)cnc(C)c2O3)c1 | inconclusive: 1.78 µM [activator, full curve, poor fit]
COc1cccc(NC(=O)CN2C=NS(=O)(=O)c3ccccc32)c1 | inactive
CCOC(=O)C1CCCN(S(=O)(=O)CCNC(=O)c2ccc(F)cc2)C1 (stereo not given) | inactive
CCOC(=O)N1CCN(C(=O)c2ccc(N(Cc3ccc(C)cc3)S(C)(=O)=O)cc2)CC1 | inconclusive: 0.82 µM [inhibitor, partial curve, poor fit]

Some of the entries so far, as a markdown table.

| Compound | Potency |
| --- | --- |
| COc1ccc(C(=O)C[n+]2ccc(N)c(C)c2C)cc1 | inconclusive: 10 µM [inhibitor, partial curve] |
| COc1ccc(CCn2ccc(O)c(Cc3ccc(Cl)cc3)c2=O)cc1OC | inconclusive: 4.47 µM [inhibitor, full curve, poor fit] |
| O=C(c1cc(-c2cccs2)nc2ccccc12)N1CCN(c2ccccc2O)CC1 | inconclusive: 17.8 µM [inhibitor, partial curve, poor fit] |
